Results as given in doi:10.1101/2020.10.19.346502.

Key:
Experiment in all cases: two-hybrid
[1] = biological target: T1, DnaA1 of C. trachomatis (C. trachomatis) (UniProt O84252)
T1 sequence: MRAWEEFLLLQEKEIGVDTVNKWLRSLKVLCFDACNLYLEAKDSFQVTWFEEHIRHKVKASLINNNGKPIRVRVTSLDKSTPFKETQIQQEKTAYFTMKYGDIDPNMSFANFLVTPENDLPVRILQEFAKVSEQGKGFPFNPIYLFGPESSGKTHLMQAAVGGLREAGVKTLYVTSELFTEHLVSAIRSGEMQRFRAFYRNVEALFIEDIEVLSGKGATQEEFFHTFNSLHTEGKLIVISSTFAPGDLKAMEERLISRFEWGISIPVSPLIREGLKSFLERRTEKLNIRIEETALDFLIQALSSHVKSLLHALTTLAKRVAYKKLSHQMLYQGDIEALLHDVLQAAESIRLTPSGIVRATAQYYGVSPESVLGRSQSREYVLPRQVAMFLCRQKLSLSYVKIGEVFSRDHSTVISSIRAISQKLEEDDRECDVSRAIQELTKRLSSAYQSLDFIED

[2] = biological target: T2, MreB of C. trachomatis (C. trachomatis) (UniProt O84715)
T2 sequence: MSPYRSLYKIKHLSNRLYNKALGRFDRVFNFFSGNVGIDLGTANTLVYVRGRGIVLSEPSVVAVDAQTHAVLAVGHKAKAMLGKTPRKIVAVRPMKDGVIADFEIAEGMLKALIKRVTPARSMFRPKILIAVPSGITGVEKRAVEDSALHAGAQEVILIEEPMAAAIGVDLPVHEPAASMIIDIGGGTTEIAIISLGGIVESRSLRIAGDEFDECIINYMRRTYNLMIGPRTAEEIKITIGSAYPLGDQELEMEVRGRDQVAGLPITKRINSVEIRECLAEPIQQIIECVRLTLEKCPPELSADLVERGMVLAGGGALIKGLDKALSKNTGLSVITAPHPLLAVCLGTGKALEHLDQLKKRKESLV

[3] = biological target: T3, DnaA2 of C. trachomatis (C. trachomatis) (UniProt O84277)
T3 sequence: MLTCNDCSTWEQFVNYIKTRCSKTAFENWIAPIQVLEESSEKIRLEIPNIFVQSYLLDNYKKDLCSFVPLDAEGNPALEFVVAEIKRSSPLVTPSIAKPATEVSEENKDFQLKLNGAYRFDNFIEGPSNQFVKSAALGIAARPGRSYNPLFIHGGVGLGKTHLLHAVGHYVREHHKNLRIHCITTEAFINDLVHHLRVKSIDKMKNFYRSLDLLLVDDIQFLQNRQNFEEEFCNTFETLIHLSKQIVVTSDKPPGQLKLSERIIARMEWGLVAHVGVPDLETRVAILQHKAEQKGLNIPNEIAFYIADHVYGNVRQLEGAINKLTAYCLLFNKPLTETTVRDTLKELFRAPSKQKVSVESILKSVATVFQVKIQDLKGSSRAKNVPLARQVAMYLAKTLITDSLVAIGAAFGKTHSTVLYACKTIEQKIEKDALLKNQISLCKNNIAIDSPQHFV

Measured: binding

BacACT, chlamydial bactofilin encoded by ct276 / ctl_0528
no binding: all assays above

These are yes or no findings as the source states them, for the method shown.
